Data: PubChem BioAssay AID2685 (National Center for Advancing Translational Sciences (NCATS), 2010)
The list shows a part of the results. Further columns of the screen follow, without active or inactive calls. The list favours compounds with an active or inconclusive main result. Words in brackets tell the shape of the fitted curve; partial curves, single points and poor fits give uncertain potencies.

Test: qHTS Assay for Lipid Storage Modulators in Drosophila S3 Cells;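 for cell number change: cells counted by Cell Tracker Red CMTPX staining in the red channel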
Conditions: BODIPY lipid droplet fluorescence, 18-24 h; for cell number change: measured here: cell count max response, cells fed with added oleic acid
How it was run: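 Laser-scanning cytometry quantifies lipid droplet accumulation (500–530 nm total intensity; droplet/cell object ratio) in oleic acid-fed (400 uM added) Drosophila S3 cells treated with a concentration series. 20 uM Triacsin C defined 100% inhibition.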

[1] = measured here: lipid fluorescence (Fed channel) AC50, cells fed with added oleic acid
[2] = measured here: cell number channel AC50, cells fed with added oleic acid

SMILES | cell number change | AC50 [1] | AC50 [2]
CC(=O)Oc1ccccc1-c1nc(/C=C/c2ccccc2)no1 | 11.5% | 6.51 µM [rising, single point] | –
C/C(=N\O)C1CC(CC(=O)O)C1(C)C (stereo not drawn) | – | 3.66 µM [falling, partial curve] | –
CCOC(=O)c1c(NC(=S)NCC2CCCO2)sc(C)c1C (stereo not drawn) | 6.43% | 2.31 µM [rising, single point] | –
COc1ccc2nc(NC(=O)CSC3=NCCS3)sc2c1 | -15.1% | 1.64 µM [rising, partial curve] | –
CCCOc1ccc(N2CC(C(=O)Nc3ccccc3F)CC2=O)cc1 (stereo not drawn) | -0.816% | 0.082 µM [rising, full curve, poor fit] | –
COc1cc(NC(=O)c2cc(Br)cc(C)c2OC)ccc1NC(=O)C(C)C | 123% | – | –
Cc1ccccc1CC(=O)Nc1ccc(S(=O)(=O)N2CCOCC2)cc1 | – | 0.58 µM [rising, single point] | –
CCOC(=O)NC(=O)C(=CNc1ccccc1C)C(=O)NC(=O)OCC | -7.69% | 0.164 µM [falling, full curve, poor fit] | –
O/N=C/c1cc(Cl)ccc1OCc1ccccc1Cl | -43% | – | 29.1 µM [falling, single point]
O=C1c2ccc(Cl)cc2S(=O)(=O)c2cccc(C(=O)N3CCC(Cc4ccccc4)CC3)c21 | -41.5% | 0.517 µM [falling, full curve] | 0.58 µM [falling, full curve]
CCOC(=O)c1cn2nc(-c3ccc(OC)cc3)cc2nc1C1CCN(C(=O)OC(C)(C)C)CC1 | -3.18% | – | –
C=CCSC1=C(C#N)C(c2ccccc2C)CC(=O)N1 (stereo not drawn) | 27.2% | – | –
Cn1c(CNC(=O)c2ccc(Cl)cc2)nnc1SCC(=O)NC1=NCCS1 | -2.56% | 8.2 µM [rising, partial curve] | –
O=C(Nc1ccc(C(=O)NCCCN2CCN(c3ccc(F)cc3)CC2)cc1)C1=CSCCO1 | -47.7% | 18.4 µM [falling, single point] | 29.1 µM [falling, single point]
COc1ccc2cc(CCNS(=O)(=O)c3c(C)cc(C)cc3C)c(=O)[nH]c2c1 | 15.8% | – | –
COCCn1c(SCC(=O)Nc2cccc(C)n2)nnc1-c1ccco1 | -54.2% | 7.31 µM [falling, partial curve] | 7.31 µM [falling, partial curve]
S=c1[nH]nc(CCc2ccc(Cl)cc2)o1 | 41.1% | – | 1.03 µM [rising, partial curve]
C=CCOc1ccc(C(=O)Nc2ccc3c(c2)n(C)c(=O)n3C)cc1 | 17.2% | 0.146 µM [rising, full curve, poor fit] | –
Cc1sc2nc(N3CCOCC3)[nH]c(=O)c2c1-c1ccccc1 | -46.7% | 16.4 µM [falling, single point] | 4.11 µM [falling, full curve]
CNC(=S)SCCOc1ccccc1C | -34.3% | 5.17 µM [falling, partial curve, poor fit] | 4.11 µM [falling, partial curve, poor fit]

SMILES | cell number change | AC50 [1] | AC50 [2]
O=C(c1ccc2c(=O)n3c(nc2c1)CCC3)N1CCN(S(=O)(=O)c2cccc(F)c2)CC1 | -25% | – | 3.66 µM [falling, full curve, poor fit]
O=C(CN1C(=O)C2CC=C(Cl)CC2C1=O)NCc1ccccc1 (stereo not drawn) | 1.35% | – | –
O=C(Nc1cccc(S(=O)(=O)N2CCOCC2)c1)C1=NN(c2ccccc2)C(=O)CC1 | 19% | 29.1 µM [falling, single point] | –
O=C(NN1C(=O)/C(=C/C=C/c2ccco2)SC1=S)c1ccncc1 | – | 29.1 µM [rising, single point] | –
Cc1ccc(C(CNC(=O)Nc2ccccc2)N2CCN(C)CC2)cc1 (stereo not drawn) | – | 29.1 µM [falling, single point] | –
Cc1c(Cl)cccc1NC(=O)CCN1CCN(CCO)CC1 | -9.79% | 0.82 µM [rising, partial curve, poor fit] | –
CC(C)(C)C(=O)/C=c1\[nH]c(=O)/c(=C\c2ccc(F)cc2)s1 | -54.8% | – | 29.1 µM [falling, single point]
O=C(O)c1cccc(NC(=S)N/N=C/c2ccccn2)c1 | -7.51% | 29.1 µM [rising, single point] | 0.103 µM [falling, full curve, poor fit]
COCCNC(=O)CCCCCNS(=O)(=O)c1ccc(C)cc1 | -27.1% | 29.1 µM [falling, single point] | 0.731 µM [falling, full curve]
Cc1ccc(NC(=S)N2CCC(NC(=O)c3ccco3)CC2)cc1C | 42.7% | – | 16.4 µM [rising, partial curve, poor fit]
Cc1oc(C)c(C(N)=O)c1C(N)=O | -58.4% | 29.1 µM [falling, single point] | 10.3 µM [falling, partial curve]
CC(C)(C)c1ccc(C(=O)O/N=C(\N)c2ccccn2)cc1 | -18.4% | 0.1 µM [falling, full curve, poor fit] | –
O=C(c1cccc(Cl)c1)N1CCC(=O)N(C(COCc2ccccc2)Cc2ccccc2)CC1 (stereo not drawn) | 18.9% | – | –
O=C(O)c1cccc([N+](=O)[O-])c1C(=O)Nc1ccc2ccccc2c1 | 1.05% | – | –
CCc1ccc(-c2cc3c(=O)n(CC(=O)NCCN4CCCCC4C)nc(C)n3n2)cc1 (stereo not drawn) | -13.4% | 3.66 µM [rising, single point] | –
CC1CCCCN1C(=O)CSc1nnc(-c2ccco2)n1C (stereo not drawn) | 16.7% | – | –
CC(CN1CCCC1)C(=O)NN (stereo not drawn) | 7.36% | – | 0.651 µM [falling, full curve, poor fit]
CCOc1cc(C(=O)N2CCN(c3ccc(C(C)=O)cc3)CC2)cc(OCC)c1OCC | -7.37% | 2.31 µM [rising, full curve] | –
Cc1ccccc1CN1CCc2c(OCC(=O)N3CCCc4ccccc43)cccc2C1=O | -3.6% | 29.1 µM [falling, single point] | –
COC(=O)c1ccccc1NC(=O)CSCC(=O)Nc1ccc(F)cc1 | -14.6% | 29.1 µM [rising, single point] | –

SMILES | cell number change | AC50 [1] | AC50 [2]
CSc1ncccc1C(=O)OCC(=O)NCc1ccc2c(c1)OCO2 | 32.1% | 0.461 µM [rising, full curve, poor fit] | 3.26 µM [rising, partial curve]
O=C(COc1nsnc1N1CCOCC1)Nc1cccc(Cl)c1 | 34.5% | 23.1 µM [rising, single point] | 8.2 µM [rising, partial curve]
CC(C)(C)NCc1cc2ccccc2[nH]c1=O | -71.5% | 0.0651 µM [rising, full curve, poor fit] | 29.1 µM [falling, single point]
O=C(NCCCn1ccnc1)Nc1ccc(Cl)cc1Cl | -21.5% | 6.51 µM [rising, single point] | –
Cc1ccc(C(=O)Cn2c(C)cc(C)c(C#N)c2=O)cc1 | 15.6% | – | –
O=C(Nc1cccc(-c2nnc(-c3ccccc3)o2)c1)c1ccc(Br)o1 | -14.6% | 0.103 µM [rising, full curve, poor fit] | –
Cc1ccc(Oc2ccc(OCC(=O)NC(CC(C)C)C(=O)O)cc2)cc1 (stereo not drawn) | 16.3% | – | 0.00517 µM [falling, full curve, poor fit]
COc1cc([N+](=O)[O-])ccc1NC(=O)CN1CCCC1 | 44.9% | 16.4 µM [rising, partial curve, poor fit] | 20.6 µM [rising, single point]
COc1ccccc1N(C)S(=O)(=O)c1ccc(C(=O)NC(C)(C)C)cc1 | -18.9% | – | 0.58 µM [falling, full curve, poor fit]
COC(=O)c1ccccc1NC(=O)CSc1nc(-c2ccco2)cc(C(F)(F)F)n1 | -6.48% | 0.731 µM [rising, partial curve] | –
O=C(N/N=C/C=C/c1ccc2c(c1)OCO2)C(O)c1ccccc1 (stereo not drawn) | 19.9% | 20.6 µM [rising, single point] | –
CCOC(=O)C1CCCN(c2cc(=O)n(Cc3ccc(F)cc3)c(=O)[nH]2)C1 (stereo not drawn) | -9.14% | 0.00461 µM [rising, full curve, poor fit] | –
COC(=O)C1=C(C)N(c2ccc(Br)cc2)C(=O)/C1=C\c1ccco1 | -29% | 2.06 µM [falling, partial curve] | –
Cc1ccc2cc(CN(CCN(C)C)C(=O)Nc3ccc(Cl)cc3)c(=O)[nH]c2c1 | -34.8% | 23.1 µM [falling, partial curve] | 23.1 µM [falling, single point]
COc1ccc(C)cc1-n1[nH]nnc1=S | – | 6.51 µM [falling, single point] | 0.651 µM [falling, single point]
O=C1CC(/C=C/c2ccco2)=Nc2ccccc2N1 | – | 0.0259 µM [rising, full curve] | 4.11 µM [falling, partial curve, poor fit]
CCn1cc(C(C)(C)C)c(C#N)c1NC(C)=O | 8.63% | 29.1 µM [falling, single point] | –
CCCN1CCN(CC(=O)Nc2nc3ccccc3s2)CC1 | -16.5% | 0.58 µM [rising, single point] | –
CC1CC(C)CN(CCCNS(=O)(=O)c2ccc3c(c2)CCN3C(=O)C2CC2)C1 (stereo not drawn) | 6.75% | 6.51 µM [rising, partial curve] | –

Among those listed so far, two have a thiophene ring, fused or not:
SMILES | cell number change | AC50 [1] | AC50 [2]
CCOC(=O)c1c(NC(=S)NCC2CCCO2)sc(C)c1C (stereo not drawn) | 6.43% | 2.31 µM [rising, single point] | –
Cc1sc2nc(N3CCOCC3)[nH]c(=O)c2c1-c1ccccc1 | -46.7% | 16.4 µM [falling, single point] | 4.11 µM [falling, full curve]
